Results are given in words; binding and its absence hold for the method and conditions named. Some binding calls cover weakened binding; strength is not graded here.
Target: T1, p130cas (rat) (UniProt Q63767)
T1 sequence: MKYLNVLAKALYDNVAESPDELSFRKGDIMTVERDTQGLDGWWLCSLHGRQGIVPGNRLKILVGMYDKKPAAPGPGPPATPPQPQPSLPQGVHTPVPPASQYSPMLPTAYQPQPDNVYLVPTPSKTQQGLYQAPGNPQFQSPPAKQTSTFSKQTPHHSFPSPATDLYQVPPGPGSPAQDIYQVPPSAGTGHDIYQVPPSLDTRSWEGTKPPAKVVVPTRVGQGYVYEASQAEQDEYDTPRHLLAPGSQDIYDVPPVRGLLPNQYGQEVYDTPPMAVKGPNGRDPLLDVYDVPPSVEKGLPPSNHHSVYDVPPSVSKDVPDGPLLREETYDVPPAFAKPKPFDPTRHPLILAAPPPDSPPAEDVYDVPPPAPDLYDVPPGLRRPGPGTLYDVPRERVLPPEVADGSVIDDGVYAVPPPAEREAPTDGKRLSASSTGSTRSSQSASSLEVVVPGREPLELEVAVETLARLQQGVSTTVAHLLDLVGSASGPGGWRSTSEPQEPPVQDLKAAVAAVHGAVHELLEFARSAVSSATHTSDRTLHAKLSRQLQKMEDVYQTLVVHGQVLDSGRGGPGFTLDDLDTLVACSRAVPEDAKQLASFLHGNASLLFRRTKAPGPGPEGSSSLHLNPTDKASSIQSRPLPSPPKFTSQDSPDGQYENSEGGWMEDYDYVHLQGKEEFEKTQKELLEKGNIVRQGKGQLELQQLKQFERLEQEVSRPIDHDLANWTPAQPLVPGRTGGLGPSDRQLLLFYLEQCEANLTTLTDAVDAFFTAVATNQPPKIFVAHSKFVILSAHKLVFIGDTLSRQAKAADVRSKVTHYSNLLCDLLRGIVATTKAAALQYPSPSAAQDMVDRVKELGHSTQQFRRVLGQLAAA
Assay: yeast two-hybrid analysis

B1: HEF1 carboxy-terminal domain (other)
chain: IMKQNKMQLEHHQLSQFQLLEQEITKPVENDISKWKPSQSLPTTNSGVSAQDRQLLCFYYDQCETHFISLLNAIDALFSCVSSAQPPRIFVAHSKFVILSAHKLVFIGDTLTRQVTAQDIRNKVMNSSNQLCEQLKTIVMATKMAALHYPSTTALQEMVHQVTDLSRNAQLFKRSLLEMATF
notes: Tested as a two-hybrid fusion; also called C-terminal effector domain; HEF1-Cterm182
- binding: binds

Source: patent US6653074B1, “Methods for identifying agents which affect cellular morphology, locomotion and death” (Fox Chase Cancer Center, priority 1995, dated 2003)
